In patent publication US9745339B2 (GRAFFINITY PHARMACEUTICALS GMBH, priority 2012, dated 2017):

Legend:
Tocilizumab = assay: Microtiter plate chromatography of resins: binding and elution of Tocilizumab
Procedure: (§1) Resins were assessed in packed mode by microtiter plate chromatography. For each column, approximately 30 μl of resin were transferred to a 384-well filter plate and sealed with appropriate top fits. Columns with rProtein A SEPHAROSE 4 FF and MABSORBENT A2P HF were included as controls.
(§2) Either 3.3 cv of whole IgGs dissolved at 0.5 mg ml^−1 in PBS or undiluted host cell proteins (HCP) were injected onto columns.
(§3) Unbound protein was washed from columns with 5 cv of PBS prior to elution with 5 cv of glycine buffer at pH 2.5. […] During injection of samples, speed was reduced to 10 g and centrifugation time increased to 5-10 min. Effluent fractions were collected in 384-well plates and concentrations of protein were analyzed by Bradford assay. Protein masses mi, mft and me (see below) were calculated as the product of fraction volume and measured protein concentration.
(§4) The fraction of bound protein was calculated as the difference between the total mass of protein injected mi and the mass of protein detected in the flowthrough mft, divided by the total mass of protein injected.
(§5) The yield of protein was calculated as the mass of protein eluted me, divided by the mass of protein injected mi.
(§6) The fraction of bound protein and the yield of protein were calculated for each resin based on data for whole IgG-antibodies. In the case of host cell proteins, only the fraction of bound protein is given. Selectivity of resins was calculated from data for Bevacizumab whole IgG and host cell proteins. Due to limited experimental precision, selectivity was truncated for values beyond 10.

[1] = system: poly-IgG from human serum (h-poly-IgG); assay: Microtiter plate chromatography of resins: binding and elution of human poly-IgG
Procedure: as §1, §2, §3, §4, §5, §6

[2] = mass eluted (glycine pH 2.5) / mass injected
[3] = L55-73: estimated values based on the knowledge obtained from L01-L54

NCCCOc1ccc(C(=O)Nc2nc(-c3ccccn3)cs2)cc1 [Ligand L38, 4-[(1-Amino-3-propyl)oxy]benzoic acid N-[4-(2-pyridyl)thiazol-2-yl] amide]
Tocilizumab Yield (Tocilizumab; [2]): 97% | h-poly-IgG Yield [1, 2]: 98%

Cc1cc(NC(=O)c2ccc3c(c2)ncn3CCCN)nn1-c1ccccc1 [Ligand L11, 1-(3-Amino-1-propyl)benzimidazole-5-carboxylic acid N-(5-methyl-1-phenylpyrazol-3-yl) amide]
Tocilizumab Yield (Tocilizumab; [2]): 90% | h-poly-IgG Yield [1, 2]: 87%

Cc1nc2cc(C(=O)Nc3nc(-c4ccncc4)cs3)ccc2n1CCCN [Ligand L51, 1-(3-Amino-1-propyl)-2-methylbenzimidazole-5-carboxylic acid N-[4-(4-pyridyl)thiazol-2-yl] amide]
Tocilizumab Yield (Tocilizumab; [2]): 100% | h-poly-IgG Yield [1, 2]: 98%

NCCOCCOc1ccc(C(=O)Nc2nnc(-c3ccco3)s2)cc1 [Ligand L37, 4-(5-Amino-3-oxa-1-pentyloxy)benzoic acid N-[5-(2-furyl)-1,3,4-thiadiazol-2-yl] amide]
Tocilizumab Yield (Tocilizumab; [2]): 103% | h-poly-IgG Yield [1, 2]: 101%

NCCCn1cnc2cc(C(=O)Nc3nnc(-c4ccc5c(c4)OCO5)s3)ccc21 [Ligand L09, 1-(3-Amino-1-propyl)benzimidazole-5-carboxylic acid N-[2-(3,4-methylenedioxyphenyl)-1,3,4-thiadiazol-5-yl] amide]
Tocilizumab Yield (Tocilizumab; [2]): 100% | h-poly-IgG Yield [1, 2]: 106%

NCCCn1cnc2cc(NC(=O)c3cn4ccsc4n3)ccc21 [Ligand L30, 1-(3-Amino-1-propyl)-5-[(imidazo-[2,1-b]thiazol-6-yl)carboxamido]benzimidazole]
Tocilizumab Yield (Tocilizumab; [2]): 99% | h-poly-IgG Yield [1, 2]: 88%

Cc1ccc(NC(=O)c2ccc3c(c2)ncn3CCCN)nn1 [Ligand L34, 1-(3-Amino-1-propyl)benzimidazole-5-carboxylic acid N-(6-methylpyridazin-3-yl) amide]
Tocilizumab Yield (Tocilizumab; [2]): 84% | h-poly-IgG Yield [1, 2]: 74%

Cc1nc2cc(C(=O)Nc3ccc(-c4ccco4)nn3)ccc2n1CCCN [Ligand L64, 1-(3-Amino-1-propyl)-2-methylbenzimidazole-5-carboxylic acid N-[6-(2-furyl)pyridazin-3-yl] amide]
Tocilizumab Yield (Tocilizumab; [3]): >80% | h-poly-IgG Yield [1, 3]: >50%

Cc1nc2cc(C(=O)Nc3nnc(-c4ncco4)s3)ccc2n1CCCN [Ligand L73, 1-(3-Amino-1-propyl)-2-methylbenzimidazole-5-carboxylic acid N-[5-(2-oxazolyl)-1,3,4-thiadiazol-2-yl] amide]
Tocilizumab Yield (Tocilizumab; [3]): >80% | h-poly-IgG Yield [1, 3]: >50%

COc1ccc(NC(=O)c2nn(CCCN)c3ccccc23)cc1C(N)=O [Ligand L04, 1-(3-Amino-1-propyl)indazole-3-carboxylic acid N-(3-carbamoyl-4-methoxyphenyl) amide]
Tocilizumab Yield (Tocilizumab; [2]): 97% | h-poly-IgG Yield [1, 2]: 86%

NCCCn1c(=O)c(=O)[nH]c2cc(C(=O)Nc3nnc(-c4ccco4)s3)ccc21 [Ligand L28, 1-(3-Amino-1-propyl)-2,3-dioxo-1,2,3,4-tetrahydroquinoxaline-6-carboxylic acid N-[5-(2-furyl)-1,3,4-thiadiazol-2-yl]amide]
Tocilizumab Yield (Tocilizumab; [2]): 101% | h-poly-IgG Yield [1, 2]: 72%

NCCCn1cnc2cc(C(=O)Nc3nc4ccccc4s3)ccc21 [Ligand L10, 1-(3-Amino-1-propyl)benzimidazole-5-carboxylic acid N-(benzothiazol-2-yl) amide]
Tocilizumab Yield (Tocilizumab; [2]): 103% | h-poly-IgG Yield [1, 2]: 104%

NCCCNc1nc(-c2ccc(C(=O)Nc3nnc(-c4ccco4)s3)cc2)cs1 [Ligand L70, 4-[2-(3-Amino-1-propylamino)thiazol-4-yl]benzoic acid N-[5-(2-furyl)-1,3,4-thiadiazol-2-yl]amide]
Tocilizumab Yield (Tocilizumab; [3]): >80% | h-poly-IgG Yield [1, 3]: >40%

Cc1nc2cc(C(=O)Nc3nnc(-c4ccno4)s3)ccc2n1CCCN [Ligand L71, 1-(3-Amino-1-propyl)-2-methylbenzimidazole-5-carboxylic acid N-[5-(5-isoxazolyl)-1,3,4-thiadiazol-2-yl] amide]
Tocilizumab Yield (Tocilizumab; [3]): >80% | h-poly-IgG Yield [1, 3]: >50%

NCCCn1cnc2cc(C(=O)Nc3nnc(-c4ccccc4)s3)ccc21 [Ligand L33, 1-(3-Amino-1-propyl)benzimidazole-5-carboxylic acid N-(2-phenyl-1,3,4-thiadiazol-5-yl) amide]
Tocilizumab Yield (Tocilizumab; [2]): 100% | h-poly-IgG Yield [1, 2]: 94%

NCCCn1cnc2cc(C(=O)Nc3nncs3)ccc21 [Ligand L13, 1-(3-Amino-1-propyl)benzimidazole-5-carboxylic acid N-(1,3,4-thiadiazol-2-yl) amide]
Tocilizumab Yield (Tocilizumab; [2]): 103% | h-poly-IgG Yield [1, 2]: 93%

NCCCn1cnc2cc(C(=O)Nc3ncc(-c4ccco4)s3)ccc21 [Ligand L58, 1-(3-Amino-1-propyl)benzimidazole-5-carboxylic acid N-[5-(2-furyl)thiazol-2-yl] amide]
Tocilizumab Yield (Tocilizumab; [3]): >80% | h-poly-IgG Yield [1, 3]: >70%

Cn1nc(C(=O)Nc2ccc3c(c2)C(=O)N(CCCN)CCO3)c2ccccc21 [Ligand L03, 4-(3-Amino-1-propyl)-7-[(1-methylindazol-3-yl)carboxamido]-2,3,4,5-tetrahydrobenzo[f][1,4]oxazepin-5-one]
Tocilizumab Yield (Tocilizumab; [2]): 103%

Cc1nc2cc(C(=O)Nc3nnc(-c4cnco4)s3)ccc2n1CCCN [Ligand L72, 1-(3-Amino-1-propyl)-2-methylbenzimidazole-5-carboxylic acid N-[5-(5-oxazolyl)-1,3,4-thiadiazol-2-yl] amide]
Tocilizumab Yield (Tocilizumab; [3]): >80% | h-poly-IgG Yield [1, 3]: >50%

NCCOCCOCCn1cnc2cc(C(=O)Nc3nc(-c4ccccn4)cs3)ccc21
Tocilizumab Yield (Tocilizumab; [2]): 103% | h-poly-IgG Yield [1, 2]: 95%

NCCCn1cnc2cc(C(=O)Nc3nnc(-c4ccoc4)s3)ccc21 [Ligand L56, 1-(3-Amino-1-propyl)benzimidazole-5-carboxylic acid N-[5-(3-furyl)-1,3,4-thiadiazol-2-yl] amide]
Tocilizumab Yield (Tocilizumab; [3]): >80% | h-poly-IgG Yield [1, 3]: >70%

NCCCn1cnc2cc(C(=O)Nc3nc(-c4cccnc4)cs3)ccc21 [Ligand L46, 1-(3-Amino-1-propyl)benzimidazole-5-carboxylic acid N-[4-(3-pyridyl)thiazol-2-yl] amide]
Tocilizumab Yield (Tocilizumab; [2]): 109% | h-poly-IgG Yield [1, 2]: 98%

NCCCn1cnc2cc(C(=O)Nc3nc(-c4ccco4)ns3)ccc21 [Ligand L55, 1-(3-Amino-1-propyl)benzimidazole-5-carboxylic acid N-[3-(2-furyl)-1,2,4-thiadiazol-5-yl] amide]
Tocilizumab Yield (Tocilizumab; [3]): >80% | h-poly-IgG Yield [1, 3]: >70%

Cc1csc(NC(=O)c2ccc3c(c2)ncn3CCCN)n1 [Ligand L15, 1-(3-Amino-1-propyl)benzimidazole-5-carboxylic acid N-(4-methylthiazol-2-yl) amide]
Tocilizumab Yield (Tocilizumab; [2]): 103% | h-poly-IgG Yield [1, 2]: 93%

Cc1nc2cc(C(=O)Nc3nnc(-c4ccoc4)s3)ccc2n1CCCN [Ligand L61, 1-(3-Amino-1-propyl)-2-methylbenzimidazole-5-carboxylic acid N-[5-(3-furyl)-1,3,4-thiadiazol-2-yl] amide]
Tocilizumab Yield (Tocilizumab; [3]): >80% | h-poly-IgG Yield [1, 3]: >70%

Cc1nsc(NC(=O)c2ccc3c(c2)ncn3CCCN)n1 [Ligand L36, 1-(3-Amino-1-propyl)benzimidazole-5-carboxylic acid N-(3-methyl-1,2,4-thiadiazol-5-yl) amide]
Tocilizumab Yield (Tocilizumab; [2]): 96% | h-poly-IgG Yield [1, 2]: 87%

CCc1nnc(NC(=O)c2ccc3c(c2)ncn3CCCN)s1 [Ligand L07, 1-(3-Amino-1-propyl)benzimidazole-5-carboxylic acid N-(2-ethyl-1,3,4-thiadiazol-5-yl) amide]
Tocilizumab Yield (Tocilizumab; [2]): 100% | h-poly-IgG Yield [1, 2]: 97%

Cc1nnc(NC(=O)c2ccc3c(c2)ncn3CCCN)s1 [Ligand L14, 1-(3-Amino-1-propyl)benzimidazole-5-carboxylic acid N-(2-methyl-1,3,4-thiadiazol-5-yl) amide]
Tocilizumab Yield (Tocilizumab; [2]): 101% | h-poly-IgG Yield [1, 2]: 90%

NCCCn1cnc2cc(C(=O)Nc3nnc(C4CC4)s3)ccc21 [Ligand L35, 1-(3-Amino-1-propyl)benzimidazole-5-carboxylic acid N-(2-cyclopropyl-1,3,4-thiadiazol-5-yl) amide]
Tocilizumab Yield (Tocilizumab; [2]): 98% | h-poly-IgG Yield [1, 2]: 96%

CCc1nc2cc(C(=O)Nc3nnc(-c4ccco4)s3)ccc2n1CCCN [Ligand L44, 1-(3-Amino-1-propyl)-2-ethylbenzimidazole-5-carboxylic acid N-[5-(2-furyl)-1,3,4-thiadiazol-2-yl] amide]
Tocilizumab Yield (Tocilizumab; [2]): 106% | h-poly-IgG Yield [1, 2]: 96%

Cn1nc(NC(=O)c2ccc3c(c2)ncn3CCCN)c2ccccc21 [Ligand L02, 1-(3-Amino-1-propyl)benzimidazole-5-carboxylic acid N-(1-methyl-3-indazolyl) amide]
Tocilizumab Yield (Tocilizumab; [2]): 97% | h-poly-IgG Yield [1, 2]: 100%

CCc1nc2cc(C(=O)Nc3nc(-c4ccccn4)cs3)ccc2n1CCCN [Ligand L43, 1-(3-Amino-1-propyl)-2-ethylbenzimidazole-5-carboxylic acid N-[4-(2-pyridyl)thiazol-2-yl] amide]
Tocilizumab Yield (Tocilizumab; [2]): 108% | h-poly-IgG Yield [1, 2]: 94%
